Reference: PMC7591920, “A protein tertiary structure mimetic modulator of the Hippo signalling pathway” (Nature Communications, 2020)
No constants are given. Whether binding was seen depends on the method and setting. A result given as binding can be weak or reduced; the word gives no strength. Where a sequence is shown, tags or fusion partners need not be part of it.

Molecular target: T1, biotinylated VGL4(203–256) (b-1) (not stated (mouse and human identical in this stretch)) (UniProt Q80V24)
T1 sequence (peptide, biotin (position not stated)): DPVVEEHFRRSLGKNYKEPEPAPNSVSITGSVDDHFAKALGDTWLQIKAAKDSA
Experiment: pull-down; competition pull-down: biotinylated VGL4 on streptavidin magnetic beads; GST-hTEAD1 (1 µM) preincubated 30 min with peptide (50 and 200 µM), then 2.5 h with beads at room temperature; 300 mM NaCl, 25 mM Tris pH 8.8, 2 mM DTT, 2% glycerol; SDS-PAGE, Coomassie; both purified

binding: binds
Substance: GST-hTEAD1(209–426) (human) (domain or fragment)
